No constants are given. Whether binding was seen depends on the method and setting. Some results given as binding are weak or reduced against the parent protein; the word gives no strength.
B1: Dll4 antibody clone designated #2-6 (antibody, V domains shown)
VH: EVQLQQSGPELEKPGASVKISCKASGYSFTGYNMNWVKQSNGKSLEWIGNIDPYFGGTNYNQKFKGKATLTVDKSSSTAYMQLKSLTSEDSAVYYCARNYDYDGGCFDYWGQGTTLTVSS
VL: QAVVTQESALTTSPGETVTLTCRSSTGAVTTSNYANWVQEKPDHLFTGLIGGTNNRAPGVPARFSGSLIGDKAALTITGAQTEDEAIYFCALWYSNHWVFGGGTKLTVLG
B2: Dll4 antibody clone designated #61B (antibody, V domains shown)
VH: EVQLQQSGPELVKPGASVKMSCKASGYTFTSYVINWVKQKPGQGLEWIGLINPYNDGTKYNEKFKVKATLTSDKSSSTAYMELSSLTSEDSAVYYCASYYYGSRYYFDYWGQGTTLTVSS
VL: DIQMTQSSSYLSVSLGGRVTITCKASDHINNWLAWYQQKPGNAPRLLISGATSLETGVPSRFSGSGSGKDYTLSITSLQTEDVATYYCQQYWSIPLTFGAGTKLELK

The chains behind the UniProt entries cited, without tags or fusion partners. Where a name states a change or a piece, a line headed by the entry shows the natural chain unless it says otherwise.
UniProt Q9NR61: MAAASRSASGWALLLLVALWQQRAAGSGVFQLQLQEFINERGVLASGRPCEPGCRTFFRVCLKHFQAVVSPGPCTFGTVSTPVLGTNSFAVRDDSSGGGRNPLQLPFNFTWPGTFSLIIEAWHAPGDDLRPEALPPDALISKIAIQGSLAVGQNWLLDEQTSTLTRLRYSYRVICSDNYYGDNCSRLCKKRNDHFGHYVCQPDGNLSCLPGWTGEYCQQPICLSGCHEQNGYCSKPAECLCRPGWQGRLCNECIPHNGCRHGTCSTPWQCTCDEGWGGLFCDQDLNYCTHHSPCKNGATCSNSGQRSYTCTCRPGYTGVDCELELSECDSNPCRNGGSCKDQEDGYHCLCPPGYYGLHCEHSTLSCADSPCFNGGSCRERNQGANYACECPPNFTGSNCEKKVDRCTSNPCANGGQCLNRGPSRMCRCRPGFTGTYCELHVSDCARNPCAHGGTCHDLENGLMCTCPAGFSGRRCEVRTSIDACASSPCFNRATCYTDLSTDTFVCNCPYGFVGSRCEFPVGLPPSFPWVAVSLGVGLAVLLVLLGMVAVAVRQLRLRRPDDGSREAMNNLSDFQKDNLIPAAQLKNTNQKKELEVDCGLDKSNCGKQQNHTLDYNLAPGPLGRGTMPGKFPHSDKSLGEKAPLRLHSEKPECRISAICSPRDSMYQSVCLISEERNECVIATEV

How the values were obtained:
[1] = biological target: sDll4-AP (extracellular domain of human Dll4 fused to alkaline phosphatase) (human) (UniProt Q9NR61); test: ELISA: 4 ug/ml antibody coated, 20 ng soluble Dll4-AP proteins added
[2] = biological target: sDll4-AP (extracellular domain of human Dll4 fused to alkaline phosphatase) (human) (UniProt Q9NR61); test: ELISA: coated antibody, soluble Dll4 proteins fused with alkaline phosphatase

Row | Binder | binding [1] | binding [2]
1 | B1 | binds | binds
2 | B2 | binds | binds
